Results as given in the supplement of paper PMC10849652.
This is one part of the list. Residues, ends and D or L forms follow the SMILES beside them. *: point of attachment. Cbz = O=C(OCc1ccccc1)*

Amino acid sequences for entries named in this document (tags omitted). A change or cut given only in a name is not applied to a line headed by its entry.
UniProt O43752: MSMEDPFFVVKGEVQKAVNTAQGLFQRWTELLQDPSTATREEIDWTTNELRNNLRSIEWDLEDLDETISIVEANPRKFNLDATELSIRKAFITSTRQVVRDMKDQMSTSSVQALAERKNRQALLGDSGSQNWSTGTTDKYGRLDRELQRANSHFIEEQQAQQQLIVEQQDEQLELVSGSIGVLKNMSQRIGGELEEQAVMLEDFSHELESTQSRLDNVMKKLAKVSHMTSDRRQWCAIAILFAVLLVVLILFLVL
UniProt Q12846: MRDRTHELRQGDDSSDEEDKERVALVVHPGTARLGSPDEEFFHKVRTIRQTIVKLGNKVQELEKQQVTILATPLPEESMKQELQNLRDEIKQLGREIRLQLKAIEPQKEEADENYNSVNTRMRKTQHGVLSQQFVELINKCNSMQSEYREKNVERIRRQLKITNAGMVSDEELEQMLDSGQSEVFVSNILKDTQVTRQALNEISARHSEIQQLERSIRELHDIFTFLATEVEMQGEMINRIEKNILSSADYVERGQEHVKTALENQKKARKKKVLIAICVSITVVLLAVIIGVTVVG
UniProt Q9Y3F4: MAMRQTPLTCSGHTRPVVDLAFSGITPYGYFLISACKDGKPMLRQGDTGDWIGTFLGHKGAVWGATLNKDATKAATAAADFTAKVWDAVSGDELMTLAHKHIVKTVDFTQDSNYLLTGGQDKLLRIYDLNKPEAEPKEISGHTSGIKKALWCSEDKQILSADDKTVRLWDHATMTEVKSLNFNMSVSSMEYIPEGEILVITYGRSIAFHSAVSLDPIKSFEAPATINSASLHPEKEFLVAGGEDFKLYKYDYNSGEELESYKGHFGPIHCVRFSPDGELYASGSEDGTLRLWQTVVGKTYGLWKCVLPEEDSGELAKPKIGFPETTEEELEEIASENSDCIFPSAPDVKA
UniProt P27105: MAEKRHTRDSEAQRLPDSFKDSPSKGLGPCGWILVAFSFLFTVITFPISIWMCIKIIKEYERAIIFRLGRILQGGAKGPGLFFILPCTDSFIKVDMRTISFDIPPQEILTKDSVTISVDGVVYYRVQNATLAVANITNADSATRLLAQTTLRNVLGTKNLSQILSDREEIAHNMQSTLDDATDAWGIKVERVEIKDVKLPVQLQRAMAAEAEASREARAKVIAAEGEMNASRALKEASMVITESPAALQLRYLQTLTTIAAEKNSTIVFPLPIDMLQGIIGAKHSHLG
UniProt Q13148, whole entry, looked up: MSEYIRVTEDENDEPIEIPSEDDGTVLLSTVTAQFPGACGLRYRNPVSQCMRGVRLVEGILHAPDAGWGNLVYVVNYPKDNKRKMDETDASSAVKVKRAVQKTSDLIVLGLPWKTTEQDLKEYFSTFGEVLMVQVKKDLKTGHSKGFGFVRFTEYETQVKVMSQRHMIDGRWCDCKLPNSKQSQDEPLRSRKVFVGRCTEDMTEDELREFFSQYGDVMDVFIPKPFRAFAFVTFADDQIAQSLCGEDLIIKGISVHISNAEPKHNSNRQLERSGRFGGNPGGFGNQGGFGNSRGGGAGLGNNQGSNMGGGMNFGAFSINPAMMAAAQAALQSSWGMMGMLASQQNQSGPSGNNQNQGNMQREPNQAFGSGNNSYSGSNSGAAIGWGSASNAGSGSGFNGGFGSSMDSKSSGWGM
UniProt Q86TM6, whole entry, looked up: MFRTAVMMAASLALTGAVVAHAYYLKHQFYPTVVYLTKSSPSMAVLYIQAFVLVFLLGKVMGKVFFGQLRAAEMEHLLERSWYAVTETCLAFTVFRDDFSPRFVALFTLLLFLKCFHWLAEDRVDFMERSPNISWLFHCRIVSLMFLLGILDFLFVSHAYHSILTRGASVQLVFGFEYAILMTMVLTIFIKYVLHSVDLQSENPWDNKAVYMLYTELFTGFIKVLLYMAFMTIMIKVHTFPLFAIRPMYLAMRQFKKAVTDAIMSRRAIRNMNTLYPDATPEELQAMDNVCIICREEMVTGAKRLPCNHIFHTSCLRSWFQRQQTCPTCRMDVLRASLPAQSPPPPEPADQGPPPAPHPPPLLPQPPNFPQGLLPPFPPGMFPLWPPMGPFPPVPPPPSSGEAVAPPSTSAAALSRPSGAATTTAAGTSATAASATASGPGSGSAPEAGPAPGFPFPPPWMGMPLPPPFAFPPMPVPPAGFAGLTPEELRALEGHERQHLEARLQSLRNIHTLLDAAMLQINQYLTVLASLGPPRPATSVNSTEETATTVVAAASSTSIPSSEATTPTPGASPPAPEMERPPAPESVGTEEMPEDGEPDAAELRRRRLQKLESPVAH
UniProt Q9NZ72: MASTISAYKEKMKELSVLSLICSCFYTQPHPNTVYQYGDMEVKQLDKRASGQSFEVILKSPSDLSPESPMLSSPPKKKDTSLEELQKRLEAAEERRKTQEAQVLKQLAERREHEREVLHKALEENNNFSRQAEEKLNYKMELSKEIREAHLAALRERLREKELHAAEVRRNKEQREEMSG
UniProt Q9UNE7: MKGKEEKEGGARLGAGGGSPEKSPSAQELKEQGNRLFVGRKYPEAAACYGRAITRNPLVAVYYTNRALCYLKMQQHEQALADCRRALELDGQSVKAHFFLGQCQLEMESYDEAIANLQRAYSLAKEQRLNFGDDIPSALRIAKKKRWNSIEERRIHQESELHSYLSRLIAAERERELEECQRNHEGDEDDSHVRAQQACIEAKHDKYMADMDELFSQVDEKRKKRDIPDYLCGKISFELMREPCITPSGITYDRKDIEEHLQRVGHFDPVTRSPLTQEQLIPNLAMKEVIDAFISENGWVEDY
UniProt Q13033: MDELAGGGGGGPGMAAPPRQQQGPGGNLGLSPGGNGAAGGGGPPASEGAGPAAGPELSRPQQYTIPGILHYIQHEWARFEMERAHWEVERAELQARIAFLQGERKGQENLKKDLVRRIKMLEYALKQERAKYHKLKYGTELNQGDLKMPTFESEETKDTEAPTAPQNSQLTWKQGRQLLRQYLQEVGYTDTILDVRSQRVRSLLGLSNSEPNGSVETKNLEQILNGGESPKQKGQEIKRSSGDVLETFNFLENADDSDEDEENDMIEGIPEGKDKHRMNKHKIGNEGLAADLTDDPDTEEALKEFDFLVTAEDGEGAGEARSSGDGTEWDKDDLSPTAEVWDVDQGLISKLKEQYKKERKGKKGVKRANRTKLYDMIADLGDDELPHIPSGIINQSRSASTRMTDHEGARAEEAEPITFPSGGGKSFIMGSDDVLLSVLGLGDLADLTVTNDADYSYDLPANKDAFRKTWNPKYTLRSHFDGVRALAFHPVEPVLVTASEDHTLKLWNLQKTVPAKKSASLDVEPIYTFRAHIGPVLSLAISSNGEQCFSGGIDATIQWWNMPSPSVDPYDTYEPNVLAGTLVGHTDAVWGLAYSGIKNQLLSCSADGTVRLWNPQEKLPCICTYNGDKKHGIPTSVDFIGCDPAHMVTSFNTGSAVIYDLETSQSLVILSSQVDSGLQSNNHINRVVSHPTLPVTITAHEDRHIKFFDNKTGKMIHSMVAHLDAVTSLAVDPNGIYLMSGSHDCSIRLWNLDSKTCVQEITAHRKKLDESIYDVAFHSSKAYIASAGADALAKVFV
UniProt Q9H2K8: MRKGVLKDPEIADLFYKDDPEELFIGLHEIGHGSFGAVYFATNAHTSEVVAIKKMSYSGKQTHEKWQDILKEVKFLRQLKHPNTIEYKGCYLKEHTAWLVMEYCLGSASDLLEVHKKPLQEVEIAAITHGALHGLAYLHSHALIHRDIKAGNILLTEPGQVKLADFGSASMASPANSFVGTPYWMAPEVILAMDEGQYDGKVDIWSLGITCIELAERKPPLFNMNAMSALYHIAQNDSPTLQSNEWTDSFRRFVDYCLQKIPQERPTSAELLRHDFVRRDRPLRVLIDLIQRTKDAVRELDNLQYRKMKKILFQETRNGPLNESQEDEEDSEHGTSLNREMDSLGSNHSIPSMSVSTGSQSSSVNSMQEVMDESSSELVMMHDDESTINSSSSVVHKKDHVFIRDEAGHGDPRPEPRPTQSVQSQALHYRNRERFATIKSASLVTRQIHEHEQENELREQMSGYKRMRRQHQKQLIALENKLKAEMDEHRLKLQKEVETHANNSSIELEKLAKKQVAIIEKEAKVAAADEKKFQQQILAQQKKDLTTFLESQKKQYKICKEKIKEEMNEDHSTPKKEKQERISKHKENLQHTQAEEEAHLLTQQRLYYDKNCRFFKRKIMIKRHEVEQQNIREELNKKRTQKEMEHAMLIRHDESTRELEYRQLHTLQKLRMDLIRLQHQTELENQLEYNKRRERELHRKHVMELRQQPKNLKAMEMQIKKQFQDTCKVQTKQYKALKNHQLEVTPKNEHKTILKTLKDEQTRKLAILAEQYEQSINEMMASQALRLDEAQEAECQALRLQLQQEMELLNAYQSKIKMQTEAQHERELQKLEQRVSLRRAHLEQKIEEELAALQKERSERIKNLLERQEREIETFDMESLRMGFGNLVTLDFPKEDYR
UniProt P08247, whole entry, looked up: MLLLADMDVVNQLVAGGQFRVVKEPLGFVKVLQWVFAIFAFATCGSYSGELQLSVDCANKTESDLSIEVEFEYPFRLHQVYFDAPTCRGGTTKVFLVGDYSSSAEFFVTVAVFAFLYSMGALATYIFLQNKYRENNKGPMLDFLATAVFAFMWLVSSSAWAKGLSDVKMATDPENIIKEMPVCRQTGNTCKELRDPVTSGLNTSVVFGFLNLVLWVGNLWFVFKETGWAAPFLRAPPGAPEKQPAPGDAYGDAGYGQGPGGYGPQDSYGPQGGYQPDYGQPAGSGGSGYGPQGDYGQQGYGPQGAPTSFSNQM
UniProt Q17R31: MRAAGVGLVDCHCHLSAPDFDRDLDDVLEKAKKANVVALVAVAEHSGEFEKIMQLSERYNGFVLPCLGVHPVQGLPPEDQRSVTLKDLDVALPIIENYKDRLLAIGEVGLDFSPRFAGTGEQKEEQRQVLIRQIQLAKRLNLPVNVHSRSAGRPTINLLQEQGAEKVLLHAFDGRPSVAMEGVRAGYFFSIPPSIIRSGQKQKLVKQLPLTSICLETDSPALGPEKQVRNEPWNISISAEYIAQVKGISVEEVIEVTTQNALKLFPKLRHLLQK
UniProt O15533, whole entry, looked up: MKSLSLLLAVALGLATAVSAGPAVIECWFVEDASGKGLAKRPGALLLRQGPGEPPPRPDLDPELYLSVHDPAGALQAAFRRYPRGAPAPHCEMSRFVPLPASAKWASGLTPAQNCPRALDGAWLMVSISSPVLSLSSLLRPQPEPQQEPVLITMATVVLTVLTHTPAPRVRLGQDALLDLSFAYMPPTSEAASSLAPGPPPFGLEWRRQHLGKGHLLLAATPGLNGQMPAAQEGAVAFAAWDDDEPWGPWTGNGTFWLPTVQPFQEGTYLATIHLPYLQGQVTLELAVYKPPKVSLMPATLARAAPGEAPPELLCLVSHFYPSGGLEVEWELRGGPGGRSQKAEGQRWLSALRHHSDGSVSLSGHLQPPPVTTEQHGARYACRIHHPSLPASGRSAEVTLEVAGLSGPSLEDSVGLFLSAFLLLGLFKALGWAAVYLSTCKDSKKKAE
UniProt Q8TCJ2: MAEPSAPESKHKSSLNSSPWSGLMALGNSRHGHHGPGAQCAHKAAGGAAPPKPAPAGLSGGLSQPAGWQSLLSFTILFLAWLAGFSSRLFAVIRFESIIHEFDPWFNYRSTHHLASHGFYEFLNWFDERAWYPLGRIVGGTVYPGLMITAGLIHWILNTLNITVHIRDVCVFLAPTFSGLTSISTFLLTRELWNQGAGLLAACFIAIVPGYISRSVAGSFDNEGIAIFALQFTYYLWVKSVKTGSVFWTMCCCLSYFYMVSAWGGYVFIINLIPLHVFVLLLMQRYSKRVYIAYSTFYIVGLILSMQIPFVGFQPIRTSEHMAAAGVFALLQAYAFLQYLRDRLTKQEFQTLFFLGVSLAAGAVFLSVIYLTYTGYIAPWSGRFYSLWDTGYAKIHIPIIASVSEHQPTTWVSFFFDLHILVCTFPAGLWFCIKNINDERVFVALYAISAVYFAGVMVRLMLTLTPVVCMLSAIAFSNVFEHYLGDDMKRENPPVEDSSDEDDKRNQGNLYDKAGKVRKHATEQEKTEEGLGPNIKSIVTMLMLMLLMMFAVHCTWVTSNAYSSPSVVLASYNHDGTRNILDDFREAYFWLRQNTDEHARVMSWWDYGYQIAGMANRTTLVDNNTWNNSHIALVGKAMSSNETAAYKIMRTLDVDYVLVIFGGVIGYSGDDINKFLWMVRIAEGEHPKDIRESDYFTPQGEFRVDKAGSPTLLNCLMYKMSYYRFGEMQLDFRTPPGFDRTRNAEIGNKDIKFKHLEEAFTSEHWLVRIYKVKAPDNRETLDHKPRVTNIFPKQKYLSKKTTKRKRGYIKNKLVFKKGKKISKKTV
UniProt P16949: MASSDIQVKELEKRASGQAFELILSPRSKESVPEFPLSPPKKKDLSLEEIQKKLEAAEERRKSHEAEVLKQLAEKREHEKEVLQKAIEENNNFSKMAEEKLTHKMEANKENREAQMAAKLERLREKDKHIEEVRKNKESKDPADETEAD

Legend:
Assay in all cases: log2 fold change, soluble protein after heating vs DMSO (PISA); higher = thermal stabilisation; K562 cells, 10 uM, 30 min; active = over 0.2 and 3.5 SD of the protein, either way, in both replicates (recomputed)
[1] = compound: C#Cc1cccc(Nc2ncnc3cc(OCCOC)c(OCCOC)cc23)c1 [erlotinib]
Outline: (§1)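 K562 cells at 2×10^6 cells/mL were treated with 10 μM compound for 30 min. Aliquots were heated for 3 min across 48°C-58°C, pooled, and extracted in PBS with 0.5% NP-40 at 4°C; soluble protein was the supernatant after 21,000xg for 90 min. Soluble protein was quantified by TMTpro 16plex LC-MS/MS with channel sums equalised, and reported as log2 fold change in thermal stability against DMSO controls, with values from duplicates.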

[2] = compound: C/C(=N\NC(=O)C1=CC(=CC=C1)S(=O)(=O)N2CCOCC2)/C3=C(C=CC(=C3)Cl)O
Outline: as §1

[3] = compound: C1=CC(=C(C=C1Cl)C2=NC3=NC=CN=C3C(=N2)NC4=CC=NC=C4)F
Outline: as §1

[4] = compound: C1=CC(=CC=C1C2=NC3=C(N2)C=C(C=C3)C(=O)N)OC4=CC=C(C=C4)Cl
Outline: as §1

[5] = compound: C1=CC2=C(C=CC(=C2)/C=C\3/C(=O)NC(=NCC4=CC=CS4)S3)N=C1
Outline: as §1

[6] = compound: C1=CC2=NC=CN=C2C=C1/C=C/3\C(=O)NC(=O)S3
Outline: as §1

[7] = compound: C1=CC=C(C=C1)C2=NC(=C(N2)C3=CC=NC=C3)C4=CC(=C(C=C4)Cl)O
Outline: as §1

[8] = compound: C1=CC=C2C(=C1)C3=NNC4=CC=CC(=C43)C2=O
Outline: as §1

[9] = compound: C1CCN(C1)C(=O)NC2=CC=CC(=C2)NC3=NC=C(C(=N3)NCCC4=CN=CN4)Br
Outline: as §1

[10] = compound: C1CN(CCC1(CC2=CC=C(C=C2)Cl)N)C3=NC=NC4=C3C=CN4
Outline: as §1

[11] = compound: C1COCCN1CCN2C3=CC=CC=C3N=C2NC(=O)C4=CC(=CC=C4)[N+](=O)[O-] [IRAK-1-4 Inhibitor I]
Outline: as §1

[12] = compound: C=CC(=O)N1CCC[C@@H](n2nc(-c3ccc(Oc4ccccc4)cc3)c3c(N)ncnc32)C1 [ibrutinib]
Outline: as §1

[13] = compound: CC(=O)c1cnc2ccc(-c3cc(Cl)c(O)c(Cl)c3)nc2c1N[C@H]1CC[C@H](CN(C)C)CC1
Outline: as §1

[14] = compound: CC(C)(C)Cn1c(N)nc2ccc(-c3[nH]c(C(C)(C)C)nc3-c3ccc(F)cc3)nc21 [ralimetinib]
Outline: as §1

[15] = compound: CC(C)(O)CC(=O)NCCn1ccc2ncnc(Nc3ccc(Oc4cccc(C(F)(F)F)c4)c(Cl)c3)c21
Outline: as §1

[16] = compound: CC(C)C1=C2N=C(C=C(N2N=C1)NCC3=CC=CC=C3)NCCCCCCN
Outline: as §1

[17] = compound: CC(C)C[C@@H](C=O)NC(=O)[C@H](CC(C)C)NC(=O)[C@H](CC(C)C)NC(=O)OCc1ccccc1
Outline: as §1

[18] = compound: CC(C)N(C[C@H]1O[C@@H](n2cnc3c(N)ncnc32)[C@H](O)[C@@H]1O)[C@H]1C[C@@H](CCc2nc3cc(C(C)(C)C)ccc3[nH]2)C1 [pinometostat]
Outline: as §1

[19] = compound: CC1=C(C(CC(=O)N1)C2=CC=C(C=C2)C(F)(F)F)C(=O)NC3=C(C=C4C(=C3)C=NN4)F
Outline: as §1

[20] = compound: CC1=C(C2=C(C=C1)C(=O)C3=CC=CC=C3N2CCCN)C
Outline: as §1

| Target | log2 fold change [1] | log2 fold change [2] | log2 fold change [3] | log2 fold change [4] | log2 fold change [5] | log2 fold change [6] | log2 fold change [7] | log2 fold change [8] | log2 fold change [9] | log2 fold change [10] | log2 fold change [11] | log2 fold change [12] | log2 fold change [13] | log2 fold change [14] | log2 fold change [15] | log2 fold change [16] | log2 fold change [17] | log2 fold change [18] | log2 fold change [19] | log2 fold change [20] |
| --- | --- | --- | --- | --- | --- | --- | --- | --- | --- | --- | --- | --- | --- | --- | --- | --- | --- | --- | --- | --- |
| STX6 (UniProt O43752) | inactive: 0.05 | inactive: 0.03 | inactive: -0.021 | inactive: -0.006 | inactive: -0.01 | inactive: 0.044 | inactive: 0.022 | inactive: 0.009 | inactive: -0.013 | inactive: 0.031 | inactive: -0.142 | inactive: -0.013 | inactive: -0.085 | inactive: 0.02 | inactive: -0.095 | inactive: 0.059 | inactive: -0.004 | inactive: -0.11 | inactive: -0.041 | inactive: -0.001 |
| STX4 (UniProt Q12846) | inactive: -0.031 | inactive: -0.017 | inactive: 0.066 | inactive: 0.005 | inactive: -0.066 | inactive: 0 | inactive: 0.051 | inactive: -0.064 | inactive: -0.049 | inactive: 0.076 | inactive: -0.051 | inactive: 0.048 | inactive: 0.012 | inactive: 0.058 | inactive: 0.025 | inactive: 0.108 | inactive: -0.063 | inactive: -0.051 | inactive: -0.005 | inactive: 0.013 |
| STRAP isoform 2 (UniProt Q9Y3F4) | inactive: 0.011 | inactive: 0.007 | inactive: -0.019 | inactive: -0.002 | inactive: 0.032 | inactive: 0.006 | inactive: -0.017 | inactive: -0.005 | inactive: 0.011 | inactive: 0.006 | inactive: -0.005 | inactive: 0.004 | inactive: 0.018 | inactive: -0.019 | inactive: 0.013 | inactive: 0.033 | inactive: 0.006 | inactive: 0.002 | inactive: -0.012 | inactive: 0.015 |
| STOM (UniProt P27105) | inactive: -0.027 | inactive: -0.087 | inactive: -0.011 | inactive: 0.1 | inactive: 0.054 | inactive: 0.04 | inactive: -0.188 | inactive: -0.038 | inactive: 0.004 | inactive: -0.079 | inactive: -0.039 | inactive: 0.019 | inactive: -0.018 | inactive: -0.054 | inactive: 0.004 | inactive: -0.064 | inactive: 0.14 | inactive: 0.028 |  | inactive: 0.039 |
| SUPT5H (UniProt O00267) | inactive: 0.05 | inactive: 0.084 | inactive: 0.065 | inactive: 0.011 | inactive: 0.017 | inactive: 0.021 | inactive: 0.02 | inactive: 0.006 | inactive: -0.017 | inactive: 0.011 | inactive: -0.009 | inactive: -0.068 | inactive: 0.066 | inactive: -0.009 | inactive: -0.065 | inactive: -0.046 | inactive: 0.013 | inactive: -0.017 |  | inactive: -0.08 |
| TARDBP (UniProt Q13148) | inactive: 0.224 | inactive: -0.03 | inactive: -0.104 | inactive: 0.153 | inactive: -0.083 | inactive: 0.098 | inactive: 0.065 | inactive: 0.009 | inactive: -0.009 | inactive: -0.122 | inactive: -0.171 | inactive: -0.113 | inactive: -0.019 | inactive: 0.066 | inactive: 0.015 | inactive: -0.209 | inactive: 0.124 | inactive: 0.133 | inactive: -0.097 | inactive: -0.005 |
| SYVN1 (UniProt Q86TM6) | inactive: 0.04 | inactive: 0.035 | inactive: -0.024 | inactive: 0.034 | inactive: 0.077 | inactive: 0.078 | inactive: 0.053 | inactive: -0.022 | inactive: 0.005 | inactive: 0.031 | inactive: -0.042 | inactive: -0.067 | inactive: -0.003 | inactive: 0.006 | inactive: 0.04 | inactive: -0.095 | inactive: -0.003 | inactive: -0.076 | inactive: -0.018 | inactive: 0.094 |
| STMN3 (UniProt Q9NZ72) | inactive: -0.014 | inactive: 0.016 | inactive: -0.066 | inactive: 0 | inactive: 0.002 | inactive: 0.043 | inactive: 0.182 | inactive: -0.04 | inactive: -0.02 | inactive: 0.007 | inactive: 0.011 | inactive: -0.027 | inactive: -0.016 | inactive: 0.115 | inactive: -0.07 | inactive: 0.067 | inactive: 0.045 | inactive: 0.019 | inactive: 0.027 | inactive: -0.127 |
| STUB1 (UniProt Q9UNE7) | inactive: 0.003 | inactive: 0.003 | inactive: -0.242 | inactive: 0.064 | inactive: -0.064 | inactive: 0.046 | inactive: -0.009 | inactive: 0.065 | inactive: 0.041 | inactive: -0.146 | inactive: -0.096 | inactive: -0.057 | inactive: 0.013 | inactive: 0.012 | inactive: -0.001 | inactive: -0.218 | inactive: 0.137 | inactive: 0.303 | inactive: -0.023 | inactive: -0.037 |
| STRN3 (UniProt Q13033) | inactive: -0.059 | inactive: -0.011 | inactive: 0.027 | inactive: 0.019 | inactive: 0.02 | inactive: -0.017 | inactive: -0.05 | inactive: -0.039 | inactive: -0.016 | inactive: 0.008 | inactive: 0.003 | inactive: 0.027 | inactive: -0.081 | inactive: -0.032 | inactive: -0.08 | inactive: -0.033 | inactive: 0.025 | inactive: -0.019 | inactive: -0.011 | inactive: 0.041 |
| TAOK3 (UniProt Q9H2K8) | inactive: -0.017 | inactive: 0.08 | inactive: 0.009 | inactive: 0.037 | inactive: 0.02 | inactive: 0.018 | inactive: 0.018 | inactive: -0.007 | inactive: -0.044 | inactive: 0.007 | inactive: 0.007 | inactive: 0.002 | active: -0.48 | inactive: 0.009 | inactive: -0.011 | inactive: 0.007 | inactive: 0.033 | inactive: 0.012 |  | inactive: 0.035 |
| SYP (UniProt P08247) | inactive: -0.032 | inactive: -0.111 | inactive: -0.02 | inactive: 0 | inactive: 0.051 | inactive: 0.03 | inactive: -0.07 | inactive: -0.02 | inactive: 0.063 | inactive: 0.039 | inactive: 0.045 | inactive: 0.003 | inactive: 0.009 | inactive: -0.073 | inactive: 0.055 | inactive: 0.05 | inactive: 0.006 | inactive: 0.034 | inactive: -0.059 | inactive: -0.054 |
| TATDN3 isoform 3 (UniProt Q17R31) | inactive: 0.012 | inactive: -0.01 | inactive: -0.034 | inactive: -0.005 | inactive: 0.029 | inactive: 0.012 | inactive: -0.018 | inactive: -0.017 | inactive: 0.052 | inactive: -0.042 | inactive: 0.017 | inactive: 0.021 | inactive: -0.046 | inactive: 0.001 | inactive: 0.015 | inactive: 0.033 | inactive: -0.029 | inactive: 0.011 | inactive: 0.001 | inactive: -0.006 |
| TAPBP isoform 3 (UniProt O15533) | inactive: -0.042 | inactive: -0.073 | inactive: 0.083 | inactive: 0.054 | inactive: -0.131 | inactive: 0.032 | inactive: 0.307 | inactive: 0.104 | inactive: -0.054 | inactive: 0.138 | inactive: -0.058 | inactive: -0.106 | inactive: 0.037 | inactive: 0.086 | inactive: -0.264 | inactive: -0.094 | inactive: 0.015 | inactive: 0.064 | inactive: -0.06 | inactive: -0.012 |
| STT3B (UniProt Q8TCJ2) | inactive: -0.037 | inactive: -0.053 | inactive: -0.031 | inactive: 0.024 | inactive: -0.002 | inactive: 0.06 | inactive: 0.008 | inactive: -0.028 | inactive: 0.015 | inactive: -0.023 | inactive: -0.001 | inactive: 0.006 | inactive: 0.028 | inactive: 0.006 | inactive: 0.027 | inactive: -0.007 | inactive: -0.026 | inactive: 0.029 | inactive: 0.016 | inactive: -0.011 |
| STMN1 (UniProt P16949) | inactive: 0.011 | inactive: -0.009 | inactive: 0.015 | inactive: 0.019 | inactive: -0.029 | inactive: 0.004 | inactive: -0.014 | inactive: 0.058 | inactive: 0.06 | inactive: 0.073 | inactive: 0.034 | inactive: -0.064 | inactive: 0.044 | inactive: -0.016 | inactive: 0.069 | inactive: 0.104 | inactive: -0.025 | inactive: -0.063 | inactive: 0.044 | inactive: -0.013 |

Quoted at random: 2 records from the list.

| Target | log2 fold change [1] | log2 fold change [2] | log2 fold change [3] | log2 fold change [4] | log2 fold change [5] | log2 fold change [6] | log2 fold change [7] | log2 fold change [8] | log2 fold change [9] | log2 fold change [10] | log2 fold change [11] | log2 fold change [12] | log2 fold change [13] | log2 fold change [14] | log2 fold change [15] | log2 fold change [16] | log2 fold change [17] | log2 fold change [18] | log2 fold change [19] | log2 fold change [20] |
| --- | --- | --- | --- | --- | --- | --- | --- | --- | --- | --- | --- | --- | --- | --- | --- | --- | --- | --- | --- | --- |
| SYVN1 (UniProt Q86TM6) | inactive: 0.04 | inactive: 0.035 | inactive: -0.024 | inactive: 0.034 | inactive: 0.077 | inactive: 0.078 | inactive: 0.053 | inactive: -0.022 | inactive: 0.005 | inactive: 0.031 | inactive: -0.042 | inactive: -0.067 | inactive: -0.003 | inactive: 0.006 | inactive: 0.04 | inactive: -0.095 | inactive: -0.003 | inactive: -0.076 | inactive: -0.018 | inactive: 0.094 |
| TATDN3 isoform 3 (UniProt Q17R31) | inactive: 0.012 | inactive: -0.01 | inactive: -0.034 | inactive: -0.005 | inactive: 0.029 | inactive: 0.012 | inactive: -0.018 | inactive: -0.017 | inactive: 0.052 | inactive: -0.042 | inactive: 0.017 | inactive: 0.021 | inactive: -0.046 | inactive: 0.001 | inactive: 0.015 | inactive: 0.033 | inactive: -0.029 | inactive: 0.011 | inactive: 0.001 | inactive: -0.006 |
